First the molecules themselves.
B1: human tRNA-Pro; a variant is named by its letters at N, in order (parent)
chain: GGCTCGTTGGTCTAGNGGTATGATTCTCGCTTAGGGTGCGAGAGGTCCCGGGTTCNNATCCCGGACGAGCCC

The variants in data set [1] derive from B1. The data set can be described thus: tRNA Pol-III promoter activity, log2 (circRNA frequency / plasmid DNA frequency) (log2 ratio); higher = stronger promoter activity. Particulars: HEK293T; construct: no Pol-II promoter ((-)CMV library).
Variants of B1 are the subject of data set [2]. As to the kind of experiment: tRNA 3' processing efficiency (processed reads / all reads, maximum-likelihood estimate) (fraction); higher = more efficient 3' processing. Particulars: HEK293T; construct: no Pol-II promoter ((-)CMV library).
In data set [3] the parent is B1. As to the kind of experiment: tRNA 5' processing efficiency (processed reads / all reads, maximum-likelihood estimate) (fraction); higher = more efficient 5' processing. As to conditions: HEK293T; construct: CMV Pol-II promoter ((+)CMV library, decapped).

Values scatter widely in this assay.

For GAG A14T G18A, the “tRNA Pol-III promoter activity (log2)” value in data set [1] was 3.61. For the same variant, the “tRNA 3' processing efficiency” value in data set [2] was 0.27.
In the case of CAG A14G T59C, the “tRNA Pol-III promoter activity (log2)” value in data set [1] turned out to be 7.94. Further, in data set [2], the “tRNA 3' processing efficiency” value was 0.03.
Taken in the same sequence, the figures for GAG A58C T59A were 1.3 and 0.5.
Taken in the same sequence, the figures for GAG A58C T59C were 5.64 and 0.38.
For CAG A58T, in data set [1], the “tRNA Pol-III promoter activity (log2)” value was found to be 4.27. Besides, in data set [2], the “tRNA 3' processing efficiency” value was 0.21.
On the same counts, the results for CAG A58G are 4.34 and 0.36.
Take GAG A14T A20T: the “tRNA Pol-III promoter activity (log2)” value in data set [1] is 2.55. The “tRNA 3' processing efficiency” value in data set [2] is 0.6. The “tRNA 5' processing efficiency” value in data set [3] is 0.17.
GAG A14T A20G: the “tRNA Pol-III promoter activity (log2)” value in data set [1] was determined as 2.34. The “tRNA 3' processing efficiency” value in data set [2] is 0.25.
AAG G9T A14T G17T: the “tRNA Pol-III promoter activity (log2)” value in data set [1] was 5.53. In data set [2], the “tRNA 3' processing efficiency” value was 0.67.
Taken in the same sequence, the figures for GAG G9T A14T were 5.03 and 0.25.
Taken in the same sequence, the figures for GAG A14G G15A A58G were 4.53 and 0.33.
Regarding GAG A20T A58G, the “tRNA Pol-III promoter activity (log2)” value in data set [1] is 2.06. For the same variant, the “tRNA 3' processing efficiency” value in data set [2] was 0.35.
Turning to CAG A14T, the “tRNA Pol-III promoter activity (log2)” value in data set [1] is 4.36. Moreover, in data set [2], the “tRNA 3' processing efficiency” value is 0.26.
Taken in the same sequence, the figures for CAG A14G were 2.55 and 0.25.
Taken in the same sequence, the figures for GAG G15A G17T were 7.18 and 0.09.
Taken in the same sequence, the figures for CAG A14G A58G were 5.25 and 0.2.
In the case of GAG G9A A14G G15T, the “tRNA Pol-III promoter activity (log2)” value in data set [1] was found to be 4.03. Further, in data set [2], the “tRNA 3' processing efficiency” value was 0.5.
Taken in the same sequence, the figures for CAG A14G G15A were 7.39 and 0.64.
For GAG G15A A20T, the “tRNA Pol-III promoter activity (log2)” value in data set [1] turned out to be 2.23. In addition, the “tRNA 3' processing efficiency” value in data set [2] is 0.25.
With GAG A14G A20T, in data set [1], the “tRNA Pol-III promoter activity (log2)” value turned out to be 2.38. The “tRNA 3' processing efficiency” value in data set [2] was 0.45.
For the variant GAG G15C G18A, in data set [1], the “tRNA Pol-III promoter activity (log2)” value turned out to be 3.13. Besides, in data set [2], the “tRNA 3' processing efficiency” value was 0.5.
For the variant GAG G15C, the “tRNA Pol-III promoter activity (log2)” value in data set [1] was 2.82. For the same variant, in data set [2], the “tRNA 3' processing efficiency” value is 0.32.
Taken in the same sequence, the figures for GAG G15A were 0.643 and 0.43.
On the same counts, the results for TAG A14T A20G are 6.26 and 0.2.
In the case of GAG A14T A58C, in data set [1], the “tRNA Pol-III promoter activity (log2)” value was 3.46. In data set [2], the “tRNA 3' processing efficiency” value is 0.2.
Taken in the same sequence, the figures for GAG A14T A58G were 3.53 and 0.5.
Regarding GAG A14T A58T, the “tRNA Pol-III promoter activity (log2)” value in data set [1] came out at 2.58. Moreover, in data set [2], the “tRNA 3' processing efficiency” value is 0.43.
On the same counts, the results for GAG A14G T53A are 3.94 and 0.29.
Taken in the same sequence, the figures for AAG A58T were 2.9 and 0.2.
Taken in the same sequence, the figures for GAG A14G A58T were 4.08 and 0.09.
In the case of GAG A14T G18A T19G, the “tRNA Pol-III promoter activity (log2)” value in data set [1] is 3.08. Moreover, the “tRNA 3' processing efficiency” value in data set [2] is 0.2.
Taken in the same sequence, the figures for GAG G9T A58G were 0.758 and 0.5.
Taken in the same sequence, the figures for GAG G9T A58T were 2.25 and 0.4.
Taken in the same sequence, the figures for GAG A14C A20T were 3.03 and 0.2.
Turning to GAG A14G G18C, the “tRNA Pol-III promoter activity (log2)” value in data set [1] came out at 3.45. Besides, the “tRNA 3' processing efficiency” value in data set [2] is 0.5.
As to GAG A14G G18A, the “tRNA Pol-III promoter activity (log2)” value in data set [1] was determined as 6.26. Also, in data set [2], the “tRNA 3' processing efficiency” value was 0.71.
Take GAG A58G T59A: the “tRNA Pol-III promoter activity (log2)” value in data set [1] was 5.53. The “tRNA 3' processing efficiency” value in data set [2] was 0.5. Further, the “tRNA 5' processing efficiency” value in data set [3] was 0.33.
As to GAG A58G T59G, the “tRNA Pol-III promoter activity (log2)” value in data set [1] came out at 3.97. Besides, in data set [2], the “tRNA 3' processing efficiency” value is 0.44.
On the same counts, the results for GAG G15A T19G A58C are 5.51 and 0.33.
Taken in the same sequence, the figures for GAG A14G T59C were 4.93 and 0.15.
On the same counts, the results for GAG A14C G18A are 4.68 and 0.36.
As to GAG A20C T53A, the “tRNA Pol-III promoter activity (log2)” value in data set [1] was 3.68. Also, the “tRNA 3' processing efficiency” value in data set [2] is 0.4.
Taken in the same sequence, the figures for TAG G9A A14C were 3.93 and 0.25.
In the case of GAG A14T T59C, in data set [1], the “tRNA Pol-III promoter activity (log2)” value was found to be 2.86. In addition, the “tRNA 3' processing efficiency” value in data set [2] was 0.25.
Taken in the same sequence, the figures for GAG G9A A58C were 3.61 and 0.25.
Consider AAG G15A, for which, in data set [1], the “tRNA Pol-III promoter activity (log2)” value is 3.65. Moreover, the “tRNA 3' processing efficiency” value in data set [2] is 0.22.
Taken in the same sequence, the figures for GAG A14T T53A were 3.62 and 0.25.
Take GAG A58G: the “tRNA Pol-III promoter activity (log2)” value in data set [1] amounted to 2.46. Moreover, the “tRNA 3' processing efficiency” value in data set [2] is 0.45.
In the case of GAG A58T, in data set [1], the “tRNA Pol-III promoter activity (log2)” value was 1.54. For the same variant, the “tRNA 3' processing efficiency” value in data set [2] is 0.3.
Turning to GAG A58C, in data set [1], the “tRNA Pol-III promoter activity (log2)” value turned out to be 1.8. In data set [2], the “tRNA 3' processing efficiency” value was 0.07. Also, in data set [3], the “tRNA 5' processing efficiency” value is 0.29.
Turning to GAG A14C G15T G18C, the “tRNA Pol-III promoter activity (log2)” value in data set [1] was determined as 6.51. Further, the “tRNA 3' processing efficiency” value in data set [2] was 0.5.
With GAG C55T, the “tRNA Pol-III promoter activity (log2)” value in data set [1] was -0.692. Also, the “tRNA 3' processing efficiency” value in data set [2] is 0.5.
Consider GAG C55G, for which, in data set [1], the “tRNA Pol-III promoter activity (log2)” value is 1.57. For the same variant, the “tRNA 3' processing efficiency” value in data set [2] was 0.78. The “tRNA 5' processing efficiency” value in data set [3] was 0.33.
Regarding GAG G15C A20G, the “tRNA Pol-III promoter activity (log2)” value in data set [1] is 4.68. The “tRNA 3' processing efficiency” value in data set [2] was 0.73.
Regarding AAG A14T, the “tRNA Pol-III promoter activity (log2)” value in data set [1] was found to be 4. In data set [2], the “tRNA 3' processing efficiency” value is 0.2.
Turning to GAG A14T G17C, the “tRNA Pol-III promoter activity (log2)” value in data set [1] was determined as 2.05. Further, in data set [2], the “tRNA 3' processing efficiency” value was 0.11.
Taken in the same sequence, the figures for TAG A20T T59G were 5.93 and 0.25.

(Values after the supplement of paper PMC6445147.)
